These results are taken from patent US20050282743A1, “Molecular interactions in cells” (Arbor Vita Corporation, priority 2001, published 2005).

No constants are given. Whether binding was seen depends on the method and setting. Some binding calls cover weakened binding; strength is not graded here. Tags and fused reporters may be left off the sequences shown.

The target of assay [1] is T1, GST-TIP-1 (Example 3) (human) (UniProt O14907).
T1 sequence: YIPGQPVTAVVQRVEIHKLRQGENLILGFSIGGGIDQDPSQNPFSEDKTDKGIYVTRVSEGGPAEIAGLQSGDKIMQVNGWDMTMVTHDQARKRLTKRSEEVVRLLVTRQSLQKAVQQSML
The assay is described as follows: G assay competition, unlabeled 8-mer.

The target in assay [2] is T1, GST-TIP-1 (Example 3) (human). The assay is described as follows: competition G assay: unlabeled Tax C-terminal 8-mer varied against 20 uM biotinylated CD95 20-mer on immobilised GST-TIP-1, streptavidin-HRP/TMB, read at A450.

Regarding KHFRETEV [unlabeled 8 amino acid peptide corresponding to the C-terminus of Tax], the binding result in assay [1] and in assay [2] was “binds” each time.
